In patent US20050196375A1, “Methods of applying antibiotic compounds to polyurethane biomaterials using textile dyeing technology” (priority 2000, published 2005):

Key:
[1] = pH 8.62, 45° C., 4 hours
[2] = dyebath with no polyurethane present

Compound: O=C(O)c1cn(C2CC2)c2cc(N3CCNCC3)c(F)cc2c1=O [cipro, ciprofloxacin]
- Langmuir isotherm distribution coefficient K [1]: 5.8963
- saturation value of cipro on the cPU [S]f ([1]; 0.25-2.0 g/l): 0.4421 site/kg
- stability of cipro to dyeing conditions (concentration before and after dyeing) [2]: little difference between the concentrations before dyeing and after the dyeing
